Results are given in words; binding and its absence hold for the method and conditions named. A result given as binding can be weak or reduced; the word gives no strength.
Biological target: T1, Taf1 (TBP-associated factor 1), subunit of Komagataella phaffii TFIID (Komagataella phaffii) (UniProt F2QMX2)
T1 sequence: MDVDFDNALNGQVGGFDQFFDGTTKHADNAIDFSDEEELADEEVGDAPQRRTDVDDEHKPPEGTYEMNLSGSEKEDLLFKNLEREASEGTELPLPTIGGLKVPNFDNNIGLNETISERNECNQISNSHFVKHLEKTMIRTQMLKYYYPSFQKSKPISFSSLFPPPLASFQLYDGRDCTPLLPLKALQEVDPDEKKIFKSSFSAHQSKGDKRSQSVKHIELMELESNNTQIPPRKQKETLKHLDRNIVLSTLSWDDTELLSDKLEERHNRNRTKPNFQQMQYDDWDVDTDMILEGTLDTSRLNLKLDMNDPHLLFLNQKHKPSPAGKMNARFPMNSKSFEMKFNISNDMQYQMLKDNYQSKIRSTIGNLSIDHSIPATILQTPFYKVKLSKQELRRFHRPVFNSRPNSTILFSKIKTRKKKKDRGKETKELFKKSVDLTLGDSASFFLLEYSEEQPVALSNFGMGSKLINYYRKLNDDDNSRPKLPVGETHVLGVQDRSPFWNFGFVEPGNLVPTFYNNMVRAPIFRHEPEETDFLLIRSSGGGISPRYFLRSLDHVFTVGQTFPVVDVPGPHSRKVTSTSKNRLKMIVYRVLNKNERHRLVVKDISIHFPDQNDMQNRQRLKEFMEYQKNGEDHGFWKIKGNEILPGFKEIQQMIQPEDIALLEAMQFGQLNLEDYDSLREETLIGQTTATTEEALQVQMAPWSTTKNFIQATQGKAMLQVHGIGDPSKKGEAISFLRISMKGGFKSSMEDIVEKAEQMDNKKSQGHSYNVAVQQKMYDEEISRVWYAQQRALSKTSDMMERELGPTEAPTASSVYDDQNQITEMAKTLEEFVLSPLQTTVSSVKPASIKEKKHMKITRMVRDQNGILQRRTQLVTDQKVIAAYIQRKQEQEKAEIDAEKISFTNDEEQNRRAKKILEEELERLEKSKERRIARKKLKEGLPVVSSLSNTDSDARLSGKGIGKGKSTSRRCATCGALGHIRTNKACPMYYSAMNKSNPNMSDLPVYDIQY
Test: cross-linking; 50 µg purified TFIID, 3 mM BS3, 2 h at 25 °C; trypsin, SCX fractionation, Orbitrap Fusion MS; pLink and Nexus, 5% FDR; both purified

binding: binds
Substance: TATA-box Binding Protein (TBP), subunit of Komagataella phaffii TFIID

Source: paper PMC6220335, “Molecular structure of promoter-bound yeast TFIID” (Nature Communications, 2018)
